{
  "source": "paper PMC7497631",
  "about": "“Role of Membrane Tension Sensitive Endocytosis and Rho GTPases in the Uptake of the Alzheimer’s Disease Peptide Aβ(1-42)” (ACS Chemical Neuroscience, 2020)",
  "test_system": "HeLa Flp-In T-REx cells",
  "assay": "Confocal microscopy of colocalization with GFP-GRAF1 structures in cells expressing Cdc42 Q61L",
  "assay_type": "cell-based, human",
  "data": [
    {"substance": "Aβ(1-42): Synthetic Aβ(1-42) peptide, conjugated to the HiLyte Fluor HF488 or HF647 at the N-terminus, from Anaspec; applied in highly monomeric form", "values": [
      {"measurement": "colocalization with GRAF1, shorter incubation pulse", "setting": "GFP-GRAF1, mCherry-Cdc42 Q61L, 5 μM HF647-labeled Aβ(1-42), 15 min, confocal microscopy", "value": "did not observe colocalization"},
      {"measurement": "comovement of GRAF1- and peptide-containing vesicles", "setting": "GFP-GRAF1, mCherry-Cdc42 Q61L, 15 min pulse of 5 μM Aβ(1-42), time-lapse confocal microscopy", "value": "No apparent comovement"},
      {"measurement": "colocalization of peptide-containing endosomal vesicles with GRAF1", "setting": "GFP-GRAF1 induced, mCherry-Cdc42 Q61L, 1 μM HF647-labeled Aβ(1-42), 40 min, confocal microscopy", "value": "did not colocalize"}
    ]}
  ]
}
